Structures can show the parent of a compound that is named as a salt. Some of the results follow. The calls rarely recur for the same compound in another form.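 Kinases were expressed as nanoluciferase fusions in K562 cells and luminescence was read every 4 h between 2 and 18 h as percent of control, DMSO set to 100% and a positive control to 0%. A time point counts as decreased when the signal drops significantly (2 sigma). The hit call is the authors' own, does not follow from the count of time points alone, and its rule is not shown.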
Columns and labels:
Assay in all cases: number of time points (of 5) at which kinase-Nluc abundance scored as decreased, DMSO-normalised (count); higher = more persistent destabilization
Conditions in all cases: K562; 2-18 h
LMTK2 = LMTK2 (UniProt Q8IWU2)
LYN = LYN (UniProt P07948)
MAP2K1 = MAP2K1 (UniProt Q02750)
MAP2K2 = MAP2K2 (UniProt P36507)
MAP4K2 = MAP4K2 (UniProt Q12851)
MAPK1 = MAPK1 (UniProt P28482)
MAPK4 = MAPK4 (UniProt P31152)
MAPKAPK2 = MAPKAPK2 (UniProt P49137)
MKNK1 = MKNK1 (UniProt Q9BUB5)
NTRK2 = NTRK2 (UniProt Q16620)
NTRK3 = NTRK3 (UniProt Q16288)
PAK4 = PAK4 (UniProt O96013)
PBK = PBK (UniProt Q96KB5)
PDGFRB = PDGFRB (UniProt P09619)
PDK1 = PDK1 (UniProt Q15118)
PDPK1 = PDPK1 (UniProt O15530)
PIK4CA = PIK4CA (UniProt P42356)
PIK4CB = PIK4CB (UniProt Q9UBF8)
PLK1 = PLK1 (UniProt P53350)
PRKAA1 = PRKAA1 (UniProt Q13131)

Amino acid sequences for entries named in this document (tags omitted). A change or cut given only in a name is not applied to a line headed by its entry.
UniProt Q8IWU2: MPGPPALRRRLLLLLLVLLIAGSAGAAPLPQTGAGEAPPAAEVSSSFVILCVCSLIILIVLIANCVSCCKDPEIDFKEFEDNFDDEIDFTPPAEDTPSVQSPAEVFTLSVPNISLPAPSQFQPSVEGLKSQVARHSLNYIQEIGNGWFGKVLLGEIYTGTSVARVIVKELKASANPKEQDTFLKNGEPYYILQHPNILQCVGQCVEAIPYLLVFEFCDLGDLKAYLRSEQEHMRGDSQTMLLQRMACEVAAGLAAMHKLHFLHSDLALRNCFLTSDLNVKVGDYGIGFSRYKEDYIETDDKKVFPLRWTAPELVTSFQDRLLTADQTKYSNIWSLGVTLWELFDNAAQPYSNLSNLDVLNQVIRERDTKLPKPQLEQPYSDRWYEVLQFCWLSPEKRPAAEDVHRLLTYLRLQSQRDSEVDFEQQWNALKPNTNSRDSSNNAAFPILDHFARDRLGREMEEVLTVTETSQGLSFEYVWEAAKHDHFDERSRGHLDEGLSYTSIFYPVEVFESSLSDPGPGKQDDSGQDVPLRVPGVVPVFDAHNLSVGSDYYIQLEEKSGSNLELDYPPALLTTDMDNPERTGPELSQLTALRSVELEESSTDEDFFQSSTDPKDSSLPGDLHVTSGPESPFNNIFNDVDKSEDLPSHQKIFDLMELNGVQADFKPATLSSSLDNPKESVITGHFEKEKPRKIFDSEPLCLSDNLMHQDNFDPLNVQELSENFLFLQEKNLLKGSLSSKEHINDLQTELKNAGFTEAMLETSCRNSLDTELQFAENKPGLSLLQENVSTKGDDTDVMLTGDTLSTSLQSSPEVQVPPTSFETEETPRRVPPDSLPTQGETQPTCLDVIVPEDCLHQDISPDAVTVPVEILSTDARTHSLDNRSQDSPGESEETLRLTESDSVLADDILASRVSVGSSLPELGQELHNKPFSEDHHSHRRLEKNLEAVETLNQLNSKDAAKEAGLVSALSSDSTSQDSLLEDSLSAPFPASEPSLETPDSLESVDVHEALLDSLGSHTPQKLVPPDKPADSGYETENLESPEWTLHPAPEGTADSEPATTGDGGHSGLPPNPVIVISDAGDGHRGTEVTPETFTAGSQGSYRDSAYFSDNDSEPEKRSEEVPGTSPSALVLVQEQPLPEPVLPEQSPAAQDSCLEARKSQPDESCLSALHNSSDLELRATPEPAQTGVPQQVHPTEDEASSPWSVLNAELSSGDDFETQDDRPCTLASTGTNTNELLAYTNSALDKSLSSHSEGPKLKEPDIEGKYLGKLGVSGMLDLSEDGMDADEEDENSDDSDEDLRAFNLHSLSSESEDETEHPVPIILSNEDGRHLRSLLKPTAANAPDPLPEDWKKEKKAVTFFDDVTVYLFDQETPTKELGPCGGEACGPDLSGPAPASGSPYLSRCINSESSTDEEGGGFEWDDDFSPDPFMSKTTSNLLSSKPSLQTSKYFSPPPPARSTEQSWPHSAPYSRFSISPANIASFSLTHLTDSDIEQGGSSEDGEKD
UniProt P31152, whole entry: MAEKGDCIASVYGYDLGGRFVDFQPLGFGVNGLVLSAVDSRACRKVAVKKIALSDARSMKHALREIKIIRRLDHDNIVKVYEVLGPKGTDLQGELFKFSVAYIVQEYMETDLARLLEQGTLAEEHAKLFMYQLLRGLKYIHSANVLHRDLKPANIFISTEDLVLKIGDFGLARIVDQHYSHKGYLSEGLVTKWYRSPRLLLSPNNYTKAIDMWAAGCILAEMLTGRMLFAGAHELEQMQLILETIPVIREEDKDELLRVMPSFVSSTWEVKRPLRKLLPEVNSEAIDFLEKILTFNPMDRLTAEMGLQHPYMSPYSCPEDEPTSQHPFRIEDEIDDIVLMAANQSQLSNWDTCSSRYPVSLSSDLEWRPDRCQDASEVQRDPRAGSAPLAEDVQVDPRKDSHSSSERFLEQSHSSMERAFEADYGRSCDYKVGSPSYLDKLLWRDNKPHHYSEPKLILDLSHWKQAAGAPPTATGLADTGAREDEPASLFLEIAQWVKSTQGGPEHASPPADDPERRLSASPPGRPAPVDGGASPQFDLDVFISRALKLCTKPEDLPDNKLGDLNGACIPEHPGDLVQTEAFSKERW
UniProt Q16620, whole entry, looked up: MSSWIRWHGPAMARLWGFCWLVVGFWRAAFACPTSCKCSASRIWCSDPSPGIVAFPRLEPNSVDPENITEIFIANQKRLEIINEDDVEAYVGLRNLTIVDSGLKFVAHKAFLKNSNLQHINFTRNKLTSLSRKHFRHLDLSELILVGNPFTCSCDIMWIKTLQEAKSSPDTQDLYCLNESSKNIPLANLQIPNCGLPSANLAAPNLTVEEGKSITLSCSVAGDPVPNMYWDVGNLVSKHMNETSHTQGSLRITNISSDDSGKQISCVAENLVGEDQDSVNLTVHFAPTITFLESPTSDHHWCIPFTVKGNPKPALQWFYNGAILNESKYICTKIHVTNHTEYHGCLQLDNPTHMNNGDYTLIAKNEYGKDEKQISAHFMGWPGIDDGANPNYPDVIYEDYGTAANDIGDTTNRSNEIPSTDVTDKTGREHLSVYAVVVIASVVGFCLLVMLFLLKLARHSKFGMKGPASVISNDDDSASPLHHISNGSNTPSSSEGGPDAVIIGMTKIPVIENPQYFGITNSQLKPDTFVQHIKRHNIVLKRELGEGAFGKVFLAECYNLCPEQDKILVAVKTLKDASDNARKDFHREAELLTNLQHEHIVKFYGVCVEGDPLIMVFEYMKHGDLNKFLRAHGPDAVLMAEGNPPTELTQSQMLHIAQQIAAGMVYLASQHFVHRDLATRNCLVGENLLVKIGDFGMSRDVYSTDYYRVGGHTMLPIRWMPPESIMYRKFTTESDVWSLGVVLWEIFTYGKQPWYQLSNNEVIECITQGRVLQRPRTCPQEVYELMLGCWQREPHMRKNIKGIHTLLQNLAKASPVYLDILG
UniProt O96013: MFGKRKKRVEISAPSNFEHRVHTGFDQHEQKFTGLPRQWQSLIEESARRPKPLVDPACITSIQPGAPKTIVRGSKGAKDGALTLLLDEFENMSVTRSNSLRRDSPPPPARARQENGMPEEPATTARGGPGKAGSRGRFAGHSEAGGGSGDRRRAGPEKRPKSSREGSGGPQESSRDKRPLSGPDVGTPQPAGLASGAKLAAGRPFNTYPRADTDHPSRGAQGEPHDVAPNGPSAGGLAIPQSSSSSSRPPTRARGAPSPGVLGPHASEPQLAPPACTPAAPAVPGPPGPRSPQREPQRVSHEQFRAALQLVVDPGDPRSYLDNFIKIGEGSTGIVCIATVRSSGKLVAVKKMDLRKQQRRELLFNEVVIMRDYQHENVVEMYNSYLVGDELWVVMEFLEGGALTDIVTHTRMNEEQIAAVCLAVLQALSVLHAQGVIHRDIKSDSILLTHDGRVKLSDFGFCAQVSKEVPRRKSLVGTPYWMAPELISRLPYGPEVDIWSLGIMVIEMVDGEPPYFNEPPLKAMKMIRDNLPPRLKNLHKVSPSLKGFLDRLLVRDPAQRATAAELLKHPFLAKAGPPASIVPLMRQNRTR
UniProt P09619, whole entry: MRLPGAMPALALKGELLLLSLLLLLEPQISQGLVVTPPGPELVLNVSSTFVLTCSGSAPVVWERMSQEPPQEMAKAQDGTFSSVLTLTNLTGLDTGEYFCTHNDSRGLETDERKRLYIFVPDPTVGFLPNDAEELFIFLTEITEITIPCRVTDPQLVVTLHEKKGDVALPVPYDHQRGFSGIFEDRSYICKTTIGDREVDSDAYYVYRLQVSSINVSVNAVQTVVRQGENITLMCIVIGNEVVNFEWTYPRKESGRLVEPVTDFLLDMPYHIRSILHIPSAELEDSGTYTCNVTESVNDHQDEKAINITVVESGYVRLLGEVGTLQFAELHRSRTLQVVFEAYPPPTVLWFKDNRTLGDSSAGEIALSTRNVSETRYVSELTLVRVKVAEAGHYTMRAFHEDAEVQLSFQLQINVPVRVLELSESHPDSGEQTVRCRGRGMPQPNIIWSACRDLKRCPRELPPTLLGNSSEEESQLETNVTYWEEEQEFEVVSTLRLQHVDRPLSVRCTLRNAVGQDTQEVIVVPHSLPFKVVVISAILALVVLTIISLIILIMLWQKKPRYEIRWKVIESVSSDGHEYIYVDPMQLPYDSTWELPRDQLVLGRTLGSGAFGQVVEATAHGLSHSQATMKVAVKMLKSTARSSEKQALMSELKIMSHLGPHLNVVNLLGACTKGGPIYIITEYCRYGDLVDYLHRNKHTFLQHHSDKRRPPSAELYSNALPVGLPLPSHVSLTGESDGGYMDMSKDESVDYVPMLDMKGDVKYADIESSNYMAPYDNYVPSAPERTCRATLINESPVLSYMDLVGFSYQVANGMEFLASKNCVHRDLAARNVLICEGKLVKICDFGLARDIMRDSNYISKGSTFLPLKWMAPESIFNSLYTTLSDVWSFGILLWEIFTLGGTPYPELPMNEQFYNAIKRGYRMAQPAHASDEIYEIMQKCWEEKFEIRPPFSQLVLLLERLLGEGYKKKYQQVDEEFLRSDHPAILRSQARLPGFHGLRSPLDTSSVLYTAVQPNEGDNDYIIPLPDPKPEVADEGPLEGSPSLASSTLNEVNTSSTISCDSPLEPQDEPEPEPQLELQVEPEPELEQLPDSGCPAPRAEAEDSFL
UniProt Q9UBF8: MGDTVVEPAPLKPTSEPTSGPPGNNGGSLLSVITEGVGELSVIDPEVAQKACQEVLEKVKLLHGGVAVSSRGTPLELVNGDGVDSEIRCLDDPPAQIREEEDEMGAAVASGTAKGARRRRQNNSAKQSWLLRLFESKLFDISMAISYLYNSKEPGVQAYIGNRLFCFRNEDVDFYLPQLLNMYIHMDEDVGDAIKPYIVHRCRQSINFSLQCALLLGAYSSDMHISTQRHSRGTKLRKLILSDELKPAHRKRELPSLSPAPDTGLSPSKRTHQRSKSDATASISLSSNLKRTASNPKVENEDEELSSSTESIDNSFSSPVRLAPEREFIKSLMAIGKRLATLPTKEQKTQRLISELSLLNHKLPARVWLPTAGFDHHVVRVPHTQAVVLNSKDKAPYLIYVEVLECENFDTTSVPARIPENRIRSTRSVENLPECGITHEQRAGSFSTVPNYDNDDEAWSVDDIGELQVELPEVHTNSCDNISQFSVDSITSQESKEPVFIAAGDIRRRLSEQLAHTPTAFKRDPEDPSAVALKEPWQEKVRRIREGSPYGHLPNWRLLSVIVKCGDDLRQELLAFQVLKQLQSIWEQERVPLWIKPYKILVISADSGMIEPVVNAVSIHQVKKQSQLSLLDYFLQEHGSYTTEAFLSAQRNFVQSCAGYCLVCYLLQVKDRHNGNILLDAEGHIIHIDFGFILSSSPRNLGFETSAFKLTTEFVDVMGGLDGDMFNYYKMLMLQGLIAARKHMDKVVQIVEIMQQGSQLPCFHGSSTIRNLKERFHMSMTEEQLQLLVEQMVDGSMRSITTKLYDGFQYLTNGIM
UniProt P53350, whole entry: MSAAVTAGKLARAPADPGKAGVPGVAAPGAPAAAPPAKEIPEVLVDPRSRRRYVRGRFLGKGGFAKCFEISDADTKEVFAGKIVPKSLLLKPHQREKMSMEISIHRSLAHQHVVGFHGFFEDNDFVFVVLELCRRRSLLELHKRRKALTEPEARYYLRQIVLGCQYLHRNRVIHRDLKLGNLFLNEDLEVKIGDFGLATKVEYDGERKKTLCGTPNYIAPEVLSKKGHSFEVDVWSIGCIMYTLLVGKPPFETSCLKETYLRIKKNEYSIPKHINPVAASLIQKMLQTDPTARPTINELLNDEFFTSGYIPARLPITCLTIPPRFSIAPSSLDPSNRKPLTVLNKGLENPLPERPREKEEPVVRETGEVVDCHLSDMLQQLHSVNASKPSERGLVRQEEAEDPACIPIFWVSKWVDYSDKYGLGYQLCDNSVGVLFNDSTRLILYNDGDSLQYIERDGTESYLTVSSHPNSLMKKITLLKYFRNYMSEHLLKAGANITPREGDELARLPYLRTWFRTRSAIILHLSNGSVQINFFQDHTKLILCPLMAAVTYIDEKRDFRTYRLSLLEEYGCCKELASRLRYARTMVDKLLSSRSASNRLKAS
UniProt Q13131: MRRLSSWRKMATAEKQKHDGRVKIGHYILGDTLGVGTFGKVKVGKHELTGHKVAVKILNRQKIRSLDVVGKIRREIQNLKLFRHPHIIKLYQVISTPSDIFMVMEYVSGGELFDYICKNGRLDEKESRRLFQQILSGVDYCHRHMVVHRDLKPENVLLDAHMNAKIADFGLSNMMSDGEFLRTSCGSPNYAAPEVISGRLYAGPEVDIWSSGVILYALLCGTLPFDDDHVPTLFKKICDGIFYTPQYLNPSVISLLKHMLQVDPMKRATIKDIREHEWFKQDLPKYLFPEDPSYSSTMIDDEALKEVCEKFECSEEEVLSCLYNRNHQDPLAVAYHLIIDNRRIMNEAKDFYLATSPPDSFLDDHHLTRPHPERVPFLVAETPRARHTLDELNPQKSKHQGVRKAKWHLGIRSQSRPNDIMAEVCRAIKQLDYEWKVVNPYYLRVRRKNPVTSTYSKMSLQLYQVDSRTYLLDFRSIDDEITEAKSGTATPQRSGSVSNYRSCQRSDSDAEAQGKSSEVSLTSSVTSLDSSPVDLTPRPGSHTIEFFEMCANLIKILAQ

Measured: number of time points

CNCc1cc(Oc2ccc3c(ccn3C(=O)Nc3cc(C(F)(F)F)n(C)n3)c2)ncn1 [Acrizanib] (10 µM)
0: LMTK2 | LYN | MAP2K1 | MAP2K2 | MAP4K2 | MAPK1 | MAPK4 | MAPKAPK2 | MKNK1 | NTRK2 | NTRK3 | PAK4 | PBK | PDGFRB | PDK1 | PDPK1 | PIK4CA | PIK4CB | PLK1 | PRKAA1

CNc1cc2c(Nc3cccc(Br)c3)ncnc2cn1 (10 µM)
0: LMTK2 | LYN | MAP2K1 | MAP2K2 | MAP4K2 | MAPK1 | MAPK4 | MAPKAPK2 | MKNK1 | NTRK3 | PAK4 | PBK | PDGFRB | PDK1 | PDPK1 | PIK4CA | PIK4CB | PLK1 | PRKAA1
2: NTRK2

O=c1cc(-c2ccc(O[C@@H]3O[C@H](CO)[C@@H](O)[C@H](O)[C@H]3O)cc2)oc2cc(O)c([C@@H]3O[C@H](CO)[C@@H](O)[C@H](O)[C@H]3O[C@@H]3OC[C@H](O)[C@H](O)[C@H]3O)c(O)c12 [Vaccarin] (10 µM)
0: LMTK2 | LYN | MAP2K1 | MAP2K2 | MAP4K2 | MAPK1 | MAPK4 | MAPKAPK2 | MKNK1 | NTRK2 | NTRK3 | PAK4 | PBK | PDGFRB | PDK1 | PDPK1 | PIK4CA | PIK4CB | PLK1 | PRKAA1

CNC(=O)CN1CCC(Oc2cc3c(Nc4cccc(Cl)c4F)ncnc3cc2OC)CC1 [Sapitinib] (10 µM)
0: LMTK2 | LYN | MAP2K1 | MAP2K2 | MAP4K2 | MAPK1 | MAPK4 | MAPKAPK2 | MKNK1 | NTRK2 | NTRK3 | PAK4 | PBK | PDGFRB | PDK1 | PDPK1 | PIK4CA | PIK4CB | PLK1 | PRKAA1

O=[N+]([O-])c1ccc(-c2nc(-c3ccc(F)cc3)c(-c3ccncc3)[nH]2)cc1 (10 µM)
0: LMTK2 | LYN | MAP2K1 | MAP2K2 | MAP4K2 | MAPK1 | MAPK4 | MAPKAPK2 | MKNK1 | NTRK2 | NTRK3 | PAK4 | PBK | PDGFRB | PDK1 | PDPK1 | PIK4CA | PIK4CB | PLK1 | PRKAA1

Nc1nc(Nc2ccc3c(c2)CC[C@@H](N2CCCC2)CC3)nn1-c1cc2c(nn1)-c1ccccc1CCC2 [Bemcentinib] (2.5 µM)
0: LMTK2 | LYN | MAP2K1 | MAP2K2 | MAP4K2 | MAPK1 | MAPK4 | MAPKAPK2 | MKNK1 | NTRK2 | NTRK3 | PAK4 | PBK | PDGFRB | PDK1 | PDPK1 | PIK4CA | PIK4CB | PLK1 | PRKAA1

CO[C@]1(C(=O)N[C@@H](C)c2ccc(-n3cc(F)cn3)nc2)CC[C@H](c2nc(C)cc(Nc3cc(C)[nH]n3)n2)CC1 [Pralsetinib] (10 µM)
0: LMTK2 | LYN | MAP2K1 | MAP2K2 | MAP4K2 | MAPK1 | MAPK4 | MAPKAPK2 | MKNK1 | NTRK2 | NTRK3 | PAK4 | PBK | PDGFRB | PDK1 | PDPK1 | PIK4CA | PIK4CB | PLK1 | PRKAA1

C[C@@H]1COC(Nc2ccc3ncnc(Nc4ccc(OCc5nccs5)c(Cl)c4)c3c2)=N1 [Varlitinib] (10 µM)
0: LYN | MAP2K1 | MAP2K2 | MAP4K2 | MAPK1 | MAPK4 | MAPKAPK2 | MKNK1 | NTRK2 | NTRK3 | PAK4 | PBK | PDGFRB | PDK1 | PDPK1 | PIK4CA | PIK4CB | PLK1
1: PRKAA1
2: LMTK2

CN(C)c1cc[n+](Cc2ccc(OCCOc3ccc(C[n+]4ccc(N(C)C)cc4)cc3)cc2)cc1 (10 µM)
0: LMTK2 | LYN | MAP2K1 | MAP2K2 | MAP4K2 | MAPK1 | MAPK4 | MAPKAPK2 | MKNK1 | NTRK2 | NTRK3 | PAK4 | PBK | PDGFRB | PDK1 | PDPK1 | PIK4CA | PIK4CB | PLK1 | PRKAA1

Cc1cncc2cccc(S(=O)(=O)N3CCCNC[C@@H]3C)c12 [H-1152 (dihydrochloride)] (10 µM)
0: LMTK2 | LYN | MAP2K1 | MAP2K2 | MAP4K2 | MAPK1 | MAPK4 | MAPKAPK2 | MKNK1 | NTRK2 | NTRK3 | PAK4 | PBK | PDGFRB | PDK1 | PDPK1 | PIK4CA | PIK4CB | PLK1 | PRKAA1

Fc1ccc(-c2nc3n(c2-c2ccncc2)CCS3)cc1 (10 µM)
0: LMTK2 | LYN | MAP2K1 | MAP2K2 | MAP4K2 | MAPK1 | MAPK4 | MAPKAPK2 | MKNK1 | NTRK3 | PAK4 | PBK | PDGFRB | PDK1 | PDPK1 | PIK4CA | PIK4CB | PLK1 | PRKAA1

NC(=O)c1sc2c([N+](=O)[O-])cc(C(F)(F)F)cc2[n+]1[O-] [Cyclapolin 9] (10 µM)
0: LMTK2 | LYN | MAP2K1 | MAP2K2 | MAP4K2 | MAPK1 | MAPK4 | MAPKAPK2 | MKNK1 | NTRK2 | NTRK3 | PAK4 | PBK | PDGFRB | PDK1 | PDPK1 | PIK4CA | PIK4CB | PRKAA1

Cc1nc2c(NCc3cccc(S(C)(=O)=O)c3)nccn2c1-c1ccc(O)c(F)c1 (10 µM)
0: LMTK2 | LYN | MAP2K1 | MAP2K2 | MAP4K2 | MAPK1 | MAPK4 | MAPKAPK2 | MKNK1 | NTRK2 | NTRK3 | PAK4 | PBK | PDGFRB | PDK1 | PDPK1 | PIK4CA | PLK1 | PRKAA1

O=C(C#Cc1ccccc1)c1cccc([N+](=O)[O-])c1 (10 µM)
0: LMTK2 | LYN | MAP2K1 | MAP2K2 | MAP4K2 | MAPK1 | MAPK4 | MAPKAPK2 | MKNK1 | NTRK2 | NTRK3 | PAK4 | PBK | PDGFRB | PDK1 | PDPK1 | PIK4CA | PIK4CB | PLK1 | PRKAA1

C[C@H](Nc1cc2c(-c3ccc4c(c3)OCO4)noc2cn1)c1ccccc1 (10 µM)
0: LMTK2 | LYN | MAP2K1 | MAP2K2 | MAP4K2 | MAPK1 | MAPK4 | MAPKAPK2 | MKNK1 | NTRK2 | NTRK3 | PAK4 | PBK | PDGFRB | PDK1 | PDPK1 | PIK4CA | PIK4CB | PRKAA1

Pulled by compound from above (2):
Cc1nc2c(NCc3cccc(S(C)(=O)=O)c3)nccn2c1-c1ccc(O)c(F)c1 (10 µM)
0: LMTK2 | LYN | MAP2K1 | MAP2K2 | MAP4K2 | MAPK1 | MAPK4 | MAPKAPK2 | MKNK1 | NTRK2 | NTRK3 | PAK4 | PBK | PDGFRB | PDK1 | PDPK1 | PIK4CA | PLK1 | PRKAA1

Fc1ccc(-c2nc3n(c2-c2ccncc2)CCS3)cc1 (10 µM)
0: LMTK2 | LYN | MAP2K1 | MAP2K2 | MAP4K2 | MAPK1 | MAPK4 | MAPKAPK2 | MKNK1 | NTRK3 | PAK4 | PBK | PDGFRB | PDK1 | PDPK1 | PIK4CA | PIK4CB | PLK1 | PRKAA1

(continued)

CN1CCN(Cc2ccc(-c3cnc4[nH]cc(-c5ccc6[nH]ccc6c5)c4c3)cc2)CC1 (2.5 µM)
0: LMTK2 | LYN | MAP2K1 | MAP2K2 | MAP4K2 | MAPK1 | MAPK4 | MAPKAPK2 | MKNK1 | NTRK2 | NTRK3 | PAK4 | PBK | PDGFRB | PDK1 | PDPK1 | PIK4CA | PIK4CB | PLK1 | PRKAA1

O=C1CCC(N2C(=O)c3cccc(OCCCCCOc4ccc(CC(=O)Nc5cc(C6CCC6)[nH]n5)cc4)c3C2=O)C(=O)N1 (configuration not stated) [PROTAC CDK9 Degrader-1] (10 µM)
0: LYN | MAP2K1 | MAP2K2 | MAP4K2 | MAPK1 | MAPK4 | MAPKAPK2 | MKNK1 | NTRK2 | NTRK3 | PAK4 | PBK | PDGFRB | PDK1 | PDPK1 | PIK4CA | PIK4CB | PLK1 | PRKAA1
3: LMTK2

CC/C(=C(\c1ccccc1)c1ccc(OCCNC)cc1)c1ccccc1 [N-Desmethyltamoxifen (hydrochloride)] (2.5 µM)
0: LMTK2 | LYN | MAP2K1 | MAP2K2 | MAP4K2 | MAPK1 | MAPK4 | MAPKAPK2 | MKNK1 | NTRK2 | NTRK3 | PAK4 | PBK | PDGFRB | PDK1 | PDPK1 | PIK4CA | PIK4CB | PLK1 | PRKAA1

CN1CCN(c2ccc(-n3cc(-c4ccncc4OCC4CCNCC4)cn3)cc2)CC1 [MELK-8a (hydrochloride)] (10 µM)
1: LYN | MAPK4
2: PDGFRB | PIK4CB
0: MAP2K1 | MAP2K2 | MAP4K2 | MAPK1 | MAPKAPK2 | NTRK2 | NTRK3 | PAK4 | PBK | PDK1 | PIK4CA
3: LMTK2 | MKNK1 | PDPK1 | PLK1 | PRKAA1

CN1CCC(Nc2ccc(C(=O)Nc3cc(-c4ccc5c(c4)OCO5)[nH]n3)cc2)CC1 (10 µM)
1: PDPK1
0: LMTK2 | LYN | MAP2K1 | MAP2K2 | MAP4K2 | MAPK1 | MAPK4 | MAPKAPK2 | MKNK1 | NTRK2 | PAK4 | PBK | PDGFRB | PDK1 | PIK4CA | PIK4CB | PLK1 | PRKAA1

Cn1cc(-c2nc(N[C@@H]3CCCC[C@@H]3N)c(F)c3c2C(=O)NC3)cn1 [TAK-659 (hydrochloride)] (2 µM)
0: LMTK2 | LYN | MAP2K1 | MAP2K2 | MAP4K2 | MAPK1 | MAPK4 | MAPKAPK2 | MKNK1 | NTRK2 | NTRK3 | PAK4 | PBK | PDGFRB | PDK1 | PDPK1 | PIK4CA | PIK4CB | PLK1 | PRKAA1

COc1cc2nnc(C(N)=O)c(Nc3ccc(C)cc3F)c2cc1N1CCN(CCO)CC1 (2.5 µM)
0: LMTK2 | LYN | MAP2K1 | MAP2K2 | MAP4K2 | MAPK1 | MAPK4 | MAPKAPK2 | MKNK1 | NTRK3 | PAK4 | PBK | PDGFRB | PDK1 | PDPK1 | PIK4CA | PIK4CB | PLK1 | PRKAA1

Cc1ccc(NC(=O)N2CCN(c3nc(N)nc4sc(-c5cccnc5)nc34)CC2)cc1 [PI4KIII beta inhibitor 3] (10 µM)
0: LMTK2 | LYN | MAP2K1 | MAP2K2 | MAP4K2 | MAPK1 | MAPK4 | MAPKAPK2 | MKNK1 | NTRK2 | NTRK3 | PAK4 | PBK | PDGFRB | PDK1 | PDPK1 | PIK4CA | PLK1 | PRKAA1

Cc1cccc(-c2nn3c(c2-c2ccnc4ccc(C(N)=O)cc24)CCC3)n1 [Galunisertib] (10 µM)
0: LMTK2 | LYN | MAP2K1 | MAP2K2 | MAP4K2 | MAPK1 | MAPK4 | MAPKAPK2 | MKNK1 | NTRK2 | PAK4 | PBK | PDGFRB | PDK1 | PDPK1 | PIK4CA | PIK4CB | PLK1 | PRKAA1

Reference: the supplement of paper PMC12823440, “Inhibitors supercharge kinase turnover through native proteolytic circuits” (Nature, 2025)
